Drawing on PMC11941830, this text covers binding for 1 substance.

Amino acid sequences for entries named in this document (tags omitted). Residues count along the entry.
UniProt P02787, residues 20-698: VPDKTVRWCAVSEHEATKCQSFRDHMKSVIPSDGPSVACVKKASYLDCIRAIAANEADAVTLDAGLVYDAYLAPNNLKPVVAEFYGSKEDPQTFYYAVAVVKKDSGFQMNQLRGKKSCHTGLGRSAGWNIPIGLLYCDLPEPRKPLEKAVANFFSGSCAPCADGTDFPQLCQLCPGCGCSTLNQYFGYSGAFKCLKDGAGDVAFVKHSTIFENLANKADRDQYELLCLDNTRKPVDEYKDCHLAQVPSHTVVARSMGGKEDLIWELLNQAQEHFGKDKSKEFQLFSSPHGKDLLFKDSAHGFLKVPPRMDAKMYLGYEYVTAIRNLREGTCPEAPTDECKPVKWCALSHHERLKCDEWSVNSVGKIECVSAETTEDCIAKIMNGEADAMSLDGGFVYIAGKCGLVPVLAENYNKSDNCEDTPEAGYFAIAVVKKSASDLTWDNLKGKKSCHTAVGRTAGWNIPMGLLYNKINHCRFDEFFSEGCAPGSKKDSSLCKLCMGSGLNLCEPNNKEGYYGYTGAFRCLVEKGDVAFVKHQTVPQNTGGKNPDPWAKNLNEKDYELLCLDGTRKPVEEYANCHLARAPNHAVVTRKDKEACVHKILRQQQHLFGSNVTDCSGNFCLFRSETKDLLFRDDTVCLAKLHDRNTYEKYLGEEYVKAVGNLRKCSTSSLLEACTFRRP

Where a chain is given by its changes, count along the chain named. These are yes or no findings as the source states them, for the method shown. Binding seen in cells or lysates may run through a third protein. Some entries that bind do so weakly or less than the wild type. Tags and fused reporters may be left off the sequences shown.

For experiment [1], the target named is T1, Full-length human hephaestin variant D568H with a C-terminal FLAG-tag (human) (UniProt Q9BQS7).
T1 sequence: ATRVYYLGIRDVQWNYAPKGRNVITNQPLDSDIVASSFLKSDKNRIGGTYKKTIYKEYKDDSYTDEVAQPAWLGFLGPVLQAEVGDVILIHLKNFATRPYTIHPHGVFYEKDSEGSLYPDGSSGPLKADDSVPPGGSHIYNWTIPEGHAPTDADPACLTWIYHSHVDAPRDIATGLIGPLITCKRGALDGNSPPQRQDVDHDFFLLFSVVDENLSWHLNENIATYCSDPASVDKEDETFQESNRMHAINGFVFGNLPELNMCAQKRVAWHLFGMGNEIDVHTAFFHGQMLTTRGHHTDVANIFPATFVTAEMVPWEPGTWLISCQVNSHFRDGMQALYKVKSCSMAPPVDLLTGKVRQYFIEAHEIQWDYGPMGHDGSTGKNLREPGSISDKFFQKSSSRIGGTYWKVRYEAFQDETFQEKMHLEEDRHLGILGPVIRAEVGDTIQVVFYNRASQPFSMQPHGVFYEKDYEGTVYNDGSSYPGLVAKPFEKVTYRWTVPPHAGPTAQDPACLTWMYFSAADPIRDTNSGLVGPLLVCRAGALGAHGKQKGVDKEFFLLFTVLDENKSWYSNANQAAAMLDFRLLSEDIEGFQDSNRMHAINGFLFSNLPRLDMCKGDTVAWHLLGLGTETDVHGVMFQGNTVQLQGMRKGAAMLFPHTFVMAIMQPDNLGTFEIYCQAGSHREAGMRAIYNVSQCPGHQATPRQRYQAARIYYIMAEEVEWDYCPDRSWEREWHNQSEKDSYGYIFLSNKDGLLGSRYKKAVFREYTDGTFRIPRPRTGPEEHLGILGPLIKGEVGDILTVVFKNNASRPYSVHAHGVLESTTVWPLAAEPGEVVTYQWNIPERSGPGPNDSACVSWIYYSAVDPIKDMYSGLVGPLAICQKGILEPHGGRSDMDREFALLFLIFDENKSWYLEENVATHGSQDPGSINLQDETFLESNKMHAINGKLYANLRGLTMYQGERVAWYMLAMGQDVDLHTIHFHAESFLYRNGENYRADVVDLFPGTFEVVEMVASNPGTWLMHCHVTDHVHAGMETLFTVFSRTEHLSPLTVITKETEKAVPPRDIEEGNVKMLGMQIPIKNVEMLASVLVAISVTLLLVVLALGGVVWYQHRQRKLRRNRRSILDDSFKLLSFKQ
Put plainly: co-IP; HEK293T expressing full-length Heph incubated for 30 min with 0.25 µM apo-Tfn or holo-Tfn in serum-free medium; DSP cross-linking before lysis; DYKDDDDK Fab-Trap immunoprecipitation; anti-Tfn blot; only the binder purified.

Experiment [2] has as its target T2, Full-length human hephaestin, wild type, with a C-terminal FLAG-tag (human) (UniProt Q9BQS7).
T2 sequence: T1 sequence with H545D
Described as above.

Experiment [3] addresses T1, Full-length human hephaestin variant D568H with a C-terminal FLAG-tag (human). Put plainly: proximity ligation; Duolink PLA on HEK293T co-transfected with Fpn1-GFP and HephWT or HephD568H; cells incubated for 30 min with 0.25 µM apo-Tfn or holo-Tfn in serum-free medium before fixation; only the binder purified.
The target in experiment [4] is T2, Full-length human hephaestin, wild type, with a C-terminal FLAG-tag (human). The experiment is described as above.

Consider “Apo-transferrin (iron-depleted transferrin) (from UniProt P02787 20-698)”, for which the binding result in experiment [1] is given as “binds weakly”; in experiment [2] it was “binds”; in experiment [3], “binds weakly”; in experiment [4] it was “binds”.
